Melting temperature shift data for 31 targets are collected here from the supplement of paper PMC12595434, “Development of retinoid nuclear receptor pathway antagonists through targeting aldehyde dehydrogenase 1A3” (iScience, 2025).

Sequences of proteins named here, by UniProt entry; tags and fusion partners are left off. A change or cut given only in a name is not applied to a line headed by its entry.
UniProt O14974: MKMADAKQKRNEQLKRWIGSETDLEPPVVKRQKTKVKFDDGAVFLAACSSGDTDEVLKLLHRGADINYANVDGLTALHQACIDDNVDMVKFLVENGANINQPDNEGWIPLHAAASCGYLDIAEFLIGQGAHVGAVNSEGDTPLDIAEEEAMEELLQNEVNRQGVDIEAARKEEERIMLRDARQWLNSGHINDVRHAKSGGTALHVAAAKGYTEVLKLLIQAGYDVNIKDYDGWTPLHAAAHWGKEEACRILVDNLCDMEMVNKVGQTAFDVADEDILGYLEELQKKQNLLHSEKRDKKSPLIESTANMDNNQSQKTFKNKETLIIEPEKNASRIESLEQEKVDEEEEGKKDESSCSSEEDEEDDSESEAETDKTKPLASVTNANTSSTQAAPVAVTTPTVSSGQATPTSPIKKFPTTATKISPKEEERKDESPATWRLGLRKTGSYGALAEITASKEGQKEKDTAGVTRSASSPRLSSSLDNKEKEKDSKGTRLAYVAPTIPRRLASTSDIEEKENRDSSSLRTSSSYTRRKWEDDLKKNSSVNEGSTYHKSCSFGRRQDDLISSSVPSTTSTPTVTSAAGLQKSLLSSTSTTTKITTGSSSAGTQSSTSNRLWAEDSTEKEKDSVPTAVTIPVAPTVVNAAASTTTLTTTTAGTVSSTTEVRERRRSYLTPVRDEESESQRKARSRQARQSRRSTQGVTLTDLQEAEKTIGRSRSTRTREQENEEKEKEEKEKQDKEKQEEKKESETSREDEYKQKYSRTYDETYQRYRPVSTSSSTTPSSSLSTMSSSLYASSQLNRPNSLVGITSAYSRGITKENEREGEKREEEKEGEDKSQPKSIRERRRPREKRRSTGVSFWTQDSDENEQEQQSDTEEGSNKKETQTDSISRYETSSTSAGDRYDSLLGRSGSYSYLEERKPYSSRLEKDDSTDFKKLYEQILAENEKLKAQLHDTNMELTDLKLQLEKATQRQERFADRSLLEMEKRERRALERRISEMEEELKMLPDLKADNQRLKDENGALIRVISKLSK
UniProt O43301: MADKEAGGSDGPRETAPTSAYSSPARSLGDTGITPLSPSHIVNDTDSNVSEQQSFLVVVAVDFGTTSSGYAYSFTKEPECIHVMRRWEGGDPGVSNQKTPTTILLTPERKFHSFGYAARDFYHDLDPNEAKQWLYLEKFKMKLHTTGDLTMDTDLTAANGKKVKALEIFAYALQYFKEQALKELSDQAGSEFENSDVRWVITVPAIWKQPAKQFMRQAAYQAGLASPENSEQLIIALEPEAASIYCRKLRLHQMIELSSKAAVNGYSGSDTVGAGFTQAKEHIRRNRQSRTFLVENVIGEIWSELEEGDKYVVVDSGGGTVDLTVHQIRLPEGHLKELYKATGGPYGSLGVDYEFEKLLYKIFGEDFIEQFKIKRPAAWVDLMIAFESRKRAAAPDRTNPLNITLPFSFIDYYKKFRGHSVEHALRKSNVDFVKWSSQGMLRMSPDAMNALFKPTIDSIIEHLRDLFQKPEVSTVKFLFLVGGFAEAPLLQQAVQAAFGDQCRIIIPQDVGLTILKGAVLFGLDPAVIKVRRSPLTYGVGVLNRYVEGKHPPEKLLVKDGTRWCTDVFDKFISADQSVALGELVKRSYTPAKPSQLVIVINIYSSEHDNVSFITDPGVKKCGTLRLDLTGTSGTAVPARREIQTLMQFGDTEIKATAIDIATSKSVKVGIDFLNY
UniProt O00303, whole entry: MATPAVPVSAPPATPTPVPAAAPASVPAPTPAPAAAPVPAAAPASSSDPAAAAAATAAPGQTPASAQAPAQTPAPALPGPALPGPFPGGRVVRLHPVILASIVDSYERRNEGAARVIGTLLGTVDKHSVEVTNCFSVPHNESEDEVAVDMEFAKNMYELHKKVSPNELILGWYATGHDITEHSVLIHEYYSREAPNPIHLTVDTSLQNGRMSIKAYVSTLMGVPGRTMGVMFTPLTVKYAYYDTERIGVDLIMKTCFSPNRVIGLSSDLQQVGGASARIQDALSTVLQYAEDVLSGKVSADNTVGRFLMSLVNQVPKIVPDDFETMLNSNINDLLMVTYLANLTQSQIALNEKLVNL
UniProt O43264: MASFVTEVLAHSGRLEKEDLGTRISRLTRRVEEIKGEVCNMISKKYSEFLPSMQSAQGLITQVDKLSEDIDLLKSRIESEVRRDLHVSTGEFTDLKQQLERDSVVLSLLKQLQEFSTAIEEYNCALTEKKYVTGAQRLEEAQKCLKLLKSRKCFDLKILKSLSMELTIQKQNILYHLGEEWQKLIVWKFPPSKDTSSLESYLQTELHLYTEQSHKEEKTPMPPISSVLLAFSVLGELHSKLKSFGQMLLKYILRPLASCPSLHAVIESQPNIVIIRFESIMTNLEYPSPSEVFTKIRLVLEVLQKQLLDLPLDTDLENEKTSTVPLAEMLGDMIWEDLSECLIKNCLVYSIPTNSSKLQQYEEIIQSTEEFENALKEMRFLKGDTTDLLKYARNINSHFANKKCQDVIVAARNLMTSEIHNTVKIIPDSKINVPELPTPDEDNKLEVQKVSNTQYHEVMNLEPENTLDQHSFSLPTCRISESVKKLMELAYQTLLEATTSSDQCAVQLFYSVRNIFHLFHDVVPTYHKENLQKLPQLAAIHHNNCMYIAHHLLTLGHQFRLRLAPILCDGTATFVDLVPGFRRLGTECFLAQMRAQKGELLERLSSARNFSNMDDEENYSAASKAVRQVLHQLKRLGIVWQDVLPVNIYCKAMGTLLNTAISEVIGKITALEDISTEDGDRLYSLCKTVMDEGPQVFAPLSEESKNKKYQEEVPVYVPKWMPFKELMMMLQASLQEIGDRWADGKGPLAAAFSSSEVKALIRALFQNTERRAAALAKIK
UniProt O14777: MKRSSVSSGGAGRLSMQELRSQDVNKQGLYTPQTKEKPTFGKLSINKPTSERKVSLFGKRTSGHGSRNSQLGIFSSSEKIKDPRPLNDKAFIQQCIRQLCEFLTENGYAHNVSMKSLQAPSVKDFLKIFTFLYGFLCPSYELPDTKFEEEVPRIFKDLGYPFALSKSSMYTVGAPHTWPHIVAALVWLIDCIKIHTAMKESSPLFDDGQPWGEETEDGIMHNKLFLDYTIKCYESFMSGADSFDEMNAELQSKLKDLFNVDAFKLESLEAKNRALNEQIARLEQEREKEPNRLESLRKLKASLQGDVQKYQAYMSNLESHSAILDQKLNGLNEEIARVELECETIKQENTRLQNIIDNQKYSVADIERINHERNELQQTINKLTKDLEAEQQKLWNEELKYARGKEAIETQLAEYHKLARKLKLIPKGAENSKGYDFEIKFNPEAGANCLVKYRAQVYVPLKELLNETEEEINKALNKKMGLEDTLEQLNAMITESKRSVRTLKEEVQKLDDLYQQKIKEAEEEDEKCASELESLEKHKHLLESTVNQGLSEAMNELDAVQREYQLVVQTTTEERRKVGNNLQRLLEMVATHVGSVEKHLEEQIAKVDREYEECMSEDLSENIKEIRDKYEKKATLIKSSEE
UniProt O00165, whole entry: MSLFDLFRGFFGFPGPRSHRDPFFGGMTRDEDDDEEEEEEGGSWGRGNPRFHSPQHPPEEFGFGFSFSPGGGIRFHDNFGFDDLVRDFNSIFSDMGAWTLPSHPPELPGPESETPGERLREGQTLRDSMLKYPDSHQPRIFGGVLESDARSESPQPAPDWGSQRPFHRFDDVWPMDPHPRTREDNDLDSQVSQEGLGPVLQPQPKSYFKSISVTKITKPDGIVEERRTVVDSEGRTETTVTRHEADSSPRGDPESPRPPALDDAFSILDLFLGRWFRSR
UniProt O00291: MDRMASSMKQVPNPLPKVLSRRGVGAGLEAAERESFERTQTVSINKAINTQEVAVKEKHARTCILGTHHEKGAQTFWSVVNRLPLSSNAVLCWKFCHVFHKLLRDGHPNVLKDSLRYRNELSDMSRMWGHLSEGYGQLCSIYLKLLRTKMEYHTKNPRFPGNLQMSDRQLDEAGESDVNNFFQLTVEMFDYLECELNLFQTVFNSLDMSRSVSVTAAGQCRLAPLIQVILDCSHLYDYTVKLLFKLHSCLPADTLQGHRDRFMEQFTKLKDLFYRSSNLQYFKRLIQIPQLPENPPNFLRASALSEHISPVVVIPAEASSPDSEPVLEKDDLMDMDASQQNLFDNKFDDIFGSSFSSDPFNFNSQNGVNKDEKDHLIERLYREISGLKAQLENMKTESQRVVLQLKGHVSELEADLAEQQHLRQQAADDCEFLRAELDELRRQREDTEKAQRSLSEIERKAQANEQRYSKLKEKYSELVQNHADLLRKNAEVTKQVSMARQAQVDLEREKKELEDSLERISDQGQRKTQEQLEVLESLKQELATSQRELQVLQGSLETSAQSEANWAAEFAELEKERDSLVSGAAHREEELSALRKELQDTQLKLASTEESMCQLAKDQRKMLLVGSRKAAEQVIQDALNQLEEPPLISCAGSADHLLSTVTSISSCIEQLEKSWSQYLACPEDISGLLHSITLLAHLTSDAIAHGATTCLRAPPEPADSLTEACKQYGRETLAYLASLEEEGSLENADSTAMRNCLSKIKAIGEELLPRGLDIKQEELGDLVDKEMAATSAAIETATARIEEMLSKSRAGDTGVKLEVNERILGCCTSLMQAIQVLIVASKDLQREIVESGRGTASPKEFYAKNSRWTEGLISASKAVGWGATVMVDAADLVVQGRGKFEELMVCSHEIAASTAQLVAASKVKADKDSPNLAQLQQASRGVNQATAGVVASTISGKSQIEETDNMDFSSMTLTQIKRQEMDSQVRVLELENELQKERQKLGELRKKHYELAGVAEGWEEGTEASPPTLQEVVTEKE
UniProt O15400: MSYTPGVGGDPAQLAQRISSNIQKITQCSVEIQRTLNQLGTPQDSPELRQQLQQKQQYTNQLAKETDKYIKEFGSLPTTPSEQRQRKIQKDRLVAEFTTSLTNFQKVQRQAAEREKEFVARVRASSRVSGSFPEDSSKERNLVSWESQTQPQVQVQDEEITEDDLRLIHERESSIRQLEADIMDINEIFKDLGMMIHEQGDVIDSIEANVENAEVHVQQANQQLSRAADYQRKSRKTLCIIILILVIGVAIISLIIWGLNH
UniProt A5PLL7: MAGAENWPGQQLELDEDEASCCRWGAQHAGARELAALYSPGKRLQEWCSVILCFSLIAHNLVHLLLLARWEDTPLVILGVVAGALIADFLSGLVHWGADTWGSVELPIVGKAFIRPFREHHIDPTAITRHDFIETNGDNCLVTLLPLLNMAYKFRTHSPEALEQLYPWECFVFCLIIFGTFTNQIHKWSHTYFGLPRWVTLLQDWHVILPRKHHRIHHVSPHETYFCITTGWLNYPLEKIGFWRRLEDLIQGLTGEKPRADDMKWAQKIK
UniProt O00308: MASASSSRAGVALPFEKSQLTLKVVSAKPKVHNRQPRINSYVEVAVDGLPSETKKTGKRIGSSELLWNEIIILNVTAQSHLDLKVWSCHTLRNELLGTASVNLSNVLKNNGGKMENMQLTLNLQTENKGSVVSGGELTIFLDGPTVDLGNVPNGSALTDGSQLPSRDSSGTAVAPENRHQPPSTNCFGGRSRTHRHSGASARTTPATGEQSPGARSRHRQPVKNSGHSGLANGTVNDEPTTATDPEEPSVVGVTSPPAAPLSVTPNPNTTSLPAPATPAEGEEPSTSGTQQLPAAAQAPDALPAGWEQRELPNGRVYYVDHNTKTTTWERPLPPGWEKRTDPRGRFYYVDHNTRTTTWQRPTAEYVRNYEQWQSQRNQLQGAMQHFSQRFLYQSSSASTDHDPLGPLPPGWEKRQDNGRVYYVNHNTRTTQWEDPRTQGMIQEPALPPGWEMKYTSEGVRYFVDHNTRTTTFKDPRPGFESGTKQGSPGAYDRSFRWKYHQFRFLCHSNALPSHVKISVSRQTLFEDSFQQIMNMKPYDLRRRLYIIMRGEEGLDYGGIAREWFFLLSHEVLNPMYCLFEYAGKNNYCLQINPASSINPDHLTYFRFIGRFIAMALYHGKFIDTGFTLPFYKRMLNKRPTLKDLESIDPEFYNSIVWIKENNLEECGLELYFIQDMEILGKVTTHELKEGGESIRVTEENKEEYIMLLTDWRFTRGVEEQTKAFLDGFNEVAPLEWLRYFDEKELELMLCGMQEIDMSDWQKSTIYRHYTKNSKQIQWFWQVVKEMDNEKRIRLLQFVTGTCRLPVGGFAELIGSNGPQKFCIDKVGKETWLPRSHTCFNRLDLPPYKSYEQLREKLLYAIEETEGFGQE

The other results are listed elsewhere or left out. This is a noisy data set.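 Tm was set to 64 °C where no melting was found, and many curves are irregular.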

Compound in the assay: CCc1cnccc1C(=O)Nc1cc2c(cc1F)NC(=O)CC2
Description: melting temperature shift (DMSO Tm minus MBE1-treated Tm) in cellular thermal proteome profiling; higher = less thermal stabilization by MBE1 (negative = stabilized by MBE1). The conditions noted are these: A375; MBE1 concentration: 100 nM.
On to CASK (UniProt O14936), for which the melting temperature shift is -0.483 °C.
Under ASAP2 (UniProt O43150) stands 1.37 °C; under PPP1R12A (UniProt O14974), -0.055 °C; under BCKDK (UniProt O14874), -0.427 °C.
Next, HSPA12A (UniProt O43301): -0.311 °C.
On to ARHGEF10 (UniProt O15013), for which the melting temperature shift was -0.687 °C.
Take UniProt O14972: the melting temperature shift stood at 0.446 °C.
Next, ANKRD28 (UniProt O15084): 1.83 °C; UniProt O15213: -0.537 °C.
Under UniProt A8MW92 stands 0.782 °C; under EIF3F (UniProt O00303), -0.174 °C; under PSMD11 (UniProt O00231), -1.09 °C.
Next, ZW10 (UniProt O43264): -0.814 °C; B4GALT5 (UniProt O43286): -0.969 °C.
For DNM1L (UniProt O00429), the melting temperature shift turned out to be 0.0611 °C.
Under SLC33A1 (UniProt O00400) stands -1.71 °C.
As to UNC119B (UniProt A6NIH7), the melting temperature shift is -0.943 °C.
Next, NDC80 (UniProt O14777): -0.474 °C; HAX1 (UniProt O00165): 0.458 °C.
In the case of TIMM23 (UniProt O14925), the melting temperature shift was -3.79 °C.
Under HIP1 (UniProt O00291) stands 0.531 °C; under WASL (UniProt O00401), 0.0122 °C.
Next, STX7 (UniProt O15400): -5.4 °C; KIF2A (UniProt O00139): 0.165 °C.
Under FPGT (UniProt O14772) stands -0.0268 °C; under POLR2D (UniProt O15514), -1.96 °C; under TMEM189 (UniProt A5PLL7), -1.74 °C.
With UniProt O15061, the melting temperature shift is -0.966 °C.
Under WWP2 (UniProt O00308) stands -0.32 °C; under UniProt O14950, -1.38 °C; under CLIC1 (UniProt O00299), -0.879 °C.
